# PubChem BioAssay AID1439 (NMMLSC, 2008)
# The chains behind the UniProt entries cited, without tags or fusion partners.
# UniProt P09471, whole entry, looked up: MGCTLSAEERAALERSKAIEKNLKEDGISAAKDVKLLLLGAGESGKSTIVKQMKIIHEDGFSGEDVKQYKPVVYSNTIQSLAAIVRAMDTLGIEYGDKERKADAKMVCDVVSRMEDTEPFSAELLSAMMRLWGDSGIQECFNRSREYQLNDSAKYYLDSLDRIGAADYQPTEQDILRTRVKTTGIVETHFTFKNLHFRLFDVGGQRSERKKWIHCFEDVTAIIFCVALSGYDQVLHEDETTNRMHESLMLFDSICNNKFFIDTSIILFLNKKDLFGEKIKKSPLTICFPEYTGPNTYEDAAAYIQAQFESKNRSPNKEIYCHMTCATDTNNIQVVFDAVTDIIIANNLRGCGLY
# Hit rate of the full screen: of about 220,000 compounds, about 770 (0.35%) were called active. Inconclusive results, whose numbers are uncertain, are shown with a selection of clear calls. No stated cut-off is given here; in the data, active means binding response below about 49% or above about 150%; inconclusive means no clear call, values can overlap the other calls; inactive means in between.
# Biological target: Guanine nucleotide-binding protein G(o) subunit alpha (Homo sapiens) (UniProt P09471)
# Experiment: RGS7-Galphao binding modulators, primary screen, biochemical, multiplexed bead flow cytometry (AID 1439);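 further: fluorescent Galphao held in activated GDP-AlF4 state binding bead-coupled RGS7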
# Settings: at 10 µM, actives lie on both sides
row,Structure (SMILES),binding response (% of control)
1,Cc1ccc(O)c(C(CC(=O)NC2CCCCC2)c2ccccc2)c1 (stereo unspecified),inactive: 101%
2,C=CC[N+]1(CC(=O)NCc2ccc(NC(C)=O)cc2)CCOCC1,inconclusive: 100%
3,C/C(=N\Nc1nc2ccccc2[nH]1)c1ccc([N+](=O)[O-])cc1,inconclusive: 125%
4,CCC(=O)NC(Nc1ncc(C)s1)(C(=O)OC)C(F)(F)F (stereo unspecified),inactive: 102%
5,Cc1cc(C)n2nc(C(=O)N/N=C/c3cccc(Cl)c3)nc2n1,inconclusive: 62.6%
6,CCn1cc(CCC(=O)O)c(C)n1,inactive: 143%
7,O=C(O)/C=C/c1nc(-c2ccccc2)n2ccccc12,inactive: 96.4%
8,N=C1/C(=C\c2ccc(SCc3ccccc3)o2)C(=O)N=C2SC(CC(=O)N3CCOCC3)=NN12,inconclusive: 80.2%
9,O=C(N/N=C/c1cccc(O)c1)NC1CCCCC1,inconclusive: 113%
10,CCOc1cccc(C(=O)Nc2ccncc2)c1,inconclusive: 108%
11,Cc1nc(N)sc1C(=O)N1N=N1,inconclusive: -847%
12,O=C(O)COc1ccccc1/C=N/NC(=O)CNC(=O)c1ccc(F)cc1,inconclusive: 52.8%
13,O=C(c1ccc([N+](=O)[O-])o1)N1CCc2ccccc2C1,inconclusive: 92.8%
14,O=C(O)c1ccc(N/C(=N\S(=O)(=O)c2ccc(Cl)cc2)c2ccccc2)cc1,inconclusive: 146%
15,O=C(NCC(c1ccc(F)cc1)N1CCOCC1)c1cc(F)c(F)c(F)c1F (stereo unspecified),inconclusive: 119%
16,N=C1SC(CC(=O)Nc2ccccc2[N+](=O)[O-])C(=O)N1c1ccccc1 (stereo unspecified),inconclusive: 93.8%
17,COc1cc(OC)c2c(-c3ccccc3)cc(=O)oc2c1C(CC(=O)N1CCOCC1)c1ccc2c(c1)OCO2 (stereo unspecified),inconclusive: 91.4%
18,Cc1cc(C)n(-c2nc(C(=O)O)cs2)n1,inconclusive: 117%
19,N#Cc1ccc(C(=O)OCC(=O)Nc2ccc(S(N)(=O)=O)cc2)cc1,inconclusive: 107%
20,O=C(Oc1c(-c2ccccc2)c(=O)n2c3c(cccc13)CC2)c1ccco1,inconclusive: 152%
21,O=C(/C=C/c1cccc([N+](=O)[O-])c1)NCCSCc1ccc(Cl)cc1,inactive: 98.2%
22,CN(Cc1cc(=O)n2ccsc2n1)C1CCCCC1,inconclusive: 105%
23,Cc1noc(C)c1COc1cccc(C(=O)N2CCc3ccccc32)c1,inactive: 94.4%

row,Structure (SMILES),binding response (% of control)
1,CCN1CCN(Cc2ccc(NC(=O)c3cc(NC(=O)C4=NN(c5ccccc5)C(=O)C4)cc(OC)c3)cc2C(F)(F)F)CC1,inconclusive: 88%
2,C[C@H](NC(=O)Cc1cccc2ccccc12)C(=O)NCc1ccccc1,inconclusive: 92.4%
3,CC(=O)NC(=S)Nc1ccc(NC(=O)c2cccnc2)cc1,inconclusive: 104%
4,CCOc1cc(/C=N/NC(=O)c2cc(-c3cccnc3)nc3ccccc23)ccc1O,inconclusive: 65.7%
5,Cc1nc(-c2nc(CC(=O)NNC(=O)c3ccc(Cl)cc3)cs2)cs1,inconclusive: 107%
6,CCOc1cc(/C=N/Nc2ccc(C(=O)O)cc2)ccc1OC(=O)c1ccccc1C,inconclusive: 117%
7,ONC(=Nc1cccc(C(F)(F)F)c1)c1cccnc1,inconclusive: 89.3%
8,COc1cccc(NC(=O)Nc2ccncc2)c1,inactive: 95.5%
9,CC1CC(=O)C(C2c3ccccc3CCN2C(=O)CCl)C(=O)C1 (stereo unspecified),inactive: 106%
10,Cc1cc(O)c(/C=N/Nc2ccc(F)cc2)c(=O)o1,inconclusive: 105%
11,Cc1cc(C)c(S(=O)(=O)N2CCN(C(=O)N(C)C)CC2)c(C)c1,inactive: 103%
12,CC(NCc1cccc(S(=O)(=O)N(C)C)c1)c1ccc(F)cc1 (stereo unspecified),inconclusive: 108%
13,CCNc1nc(NCC)nc(N/N=C/c2ccc(O)c(OC)c2)n1,inconclusive: 88.4%
14,CCOC(=O)c1ccccc1NC1c2ccccc2C(=O)N1C1CCN(C(=O)OCC)CC1 (stereo unspecified),inactive: 97%
15,Nc1nc(-c2ccccn2)nc(N)c1Cc1ccc(Cl)cc1Cl,inactive: 97.4%
16,N=C1C(c2nc3ccccc3s2)=C(O)CN1C1CCC(O)CC1 (stereo unspecified),inconclusive: 66.5%
17,CC(C)C[C@H](NC(=O)Nc1ccc2c(c1)OCCO2)C(=O)O,inconclusive: 84.5%
18,CCOC(=O)Cn1nc(C)c(NC(=O)COc2ccccc2)c1C,inconclusive: 92.2%
19,O=C1CN(C(=O)COC(=O)CNC(=O)c2ccc(Cl)cc2)c2ccccc2N1,inconclusive: 51.7%
20,COC(=O)c1[nH]c2cc(OC)ccc2c1NC(=O)c1c(F)cccc1F,inconclusive: 141%
21,CC(C)CN(Cc1cc(=O)oc2cc(-c3ccccc3)c(O)cc12)CC(C)C,inconclusive: 118%
22,Cc1ccc(NC(=O)c2cc(=O)c3ccccc3o2)cc1S(=O)(=O)N1CCOCC1,inconclusive: 121%
23,COc1cccc(NC(=O)Cn2c(=O)n(-c3cc(OC)c(OC)c(OC)c3)c(=O)c3ccccc32)c1,inconclusive: 104%

row,Structure (SMILES),binding response (% of control)
1,O=C(Nc1ccc2c(c1)S(=O)(=O)N=C1CCCCCN12)c1ccccc1Cl,inconclusive: 105%
2,Cc1ccccc1OCCOc1ccccc1C=C(C#N)C#N,inactive: 98.4%
3,COc1ccc2[nH]c(C(=O)Nc3ncc(C)cc3Br)cc2c1,inconclusive: 53.3%
4,N#Cc1cc(-c2ccccc2)nc(N2CCNCC2)n1,inconclusive: 91.7%
5,CC1(C)CC(=O)C(CC2=C(N)CC(C)(C)CC2=O)=C(N)C1,inconclusive: 80.8%
6,COC(=O)[C@@H]1C[C@@H]2CC[C@@H](O)C[C@@H]2N1Cc1ccc(N2CCN(C)CC2)cc1,inconclusive: 103%
7,O=[N+]([O-])c1cccc(N/N=C/c2cccc(O)c2O)c1,inactive: 97.6%
8,CCN(CC(=O)Nc1cccc(C(C)=O)c1)S(=O)(=O)c1ccc(C)cc1,inactive: 126%
9,c1ccc(Cn2cc(CNc3ccccc3)nn2)cc1,inconclusive: 103%
10,O=C(CSc1nc(-c2ccccc2)nc2ccc(F)cc12)Nc1cccc(C(=O)O)c1,inconclusive: 105%
11,CCc1c(O)c(/C(C)=N\O)c(=O)n(-c2ccccc2)c1-c1ccccc1,inactive: 115%
12,COc1cccc(Cn2c(Oc3cccc(C)c3)nc3c2c(=O)n(C)c(=O)n3C)c1,inactive: 102%
13,COC(=O)c1ccc(NC(=S)NCc2ccco2)cc1,inconclusive: 102%
14,COCCCn1c(=O)/c(=C\c2ccccc2OC(F)F)s/c1=C(/C#N)C(=O)N1CCOCC1,inconclusive: 107%
15,CCN=C(Nc1ccc2c(c1)OCO2)SC1CC(=O)N(c2ccc(OC)cc2)C1=O (stereo unspecified),inactive: 102%
16,COc1cccc2[nH]c3c(Cl)ncnc3c12,inactive: 96%
17,Cc1ccc(OCC(=O)N2CCOCC2)c([N+](=O)[O-])n1,inconclusive: 87.4%
18,O=C(NC(=S)NCc1ccccc1)c1ccccc1,inconclusive: 101%
19,Cc1ccc(/C=N/N2CCCCC2)o1,inconclusive: 111%
20,Cn1ncc(N2CCN(S(=O)(=O)c3ccc(Br)cc3)CC2)c(Cl)c1=O,inconclusive: 103%
21,O=C(Nc1ccccc1)N1CCNCC1,inconclusive: 75.1%
22,CC(=O)N(Cc1ccccn1)Cc1ccco1,inconclusive: 74.4%
23,CCN(CC)CCn1c(-c2ccc(C)cc2)nc(=S)c2c1CC(C)(C)OC2,inconclusive: 22.4%

# Some values from the list.
# Under binding response (% of control), COC(=O)c1ccc(NC(=S)NCc2ccco2)cc1 has inconclusive: 102%
# Under binding response (% of control), Cn1ncc(N2CCN(S(=O)(=O)c3ccc(Br)cc3)CC2)c(Cl)c1=O has inconclusive: 103%
# Under binding response (% of control), N#Cc1cc(-c2ccccc2)nc(N2CCNCC2)n1 has inconclusive: 91.7%
# Under binding response (% of control), COc1ccc2[nH]c(C(=O)Nc3ncc(C)cc3Br)cc2c1 has inconclusive: 53.3%

# (next part)

row,Structure (SMILES),binding response (% of control)
1,CN1CCSc2ccc(C(=O)Nc3cc(F)ccc3F)cc21,inconclusive: -63.9%
2,C/C=C/C(=O)N1CC2(CC(c3cccc(NC(=O)CCCCC)c3)=NO2)C[C@H]1C(N)=O (stereo partly specified),inconclusive: 103%
3,O=C(OCc1ccc(Cl)c(Cl)c1)c1cnccn1,inactive: 104%
4,C=CCn1c(-c2csc(-c3ccc(OC)c(OC)c3)n2)n[nH]c1=S,inconclusive: 90.3%
5,COc1cccc(C2/C(=C(/O)c3ccccc3)C(=O)C(=O)N2Cc2ccco2)c1 (stereo unspecified),inconclusive: 138%
6,CCCCN(CC(=O)NC(C)(C)C)C(=O)C(=O)Nc1ccc2c(c1)OCCO2,inconclusive: 103%
7,CCCOc1ccc(/C=N/NC(=O)CN(c2ccc(OCC)cc2)S(C)(=O)=O)cc1,inconclusive: 74%
8,O=c1c2ccc([N+](=O)[O-])cc2ncn1CCOc1cccc(Br)c1,inconclusive: 95.7%
9,Cc1ccc(NS(=O)(=O)c2cc3c4c(cccc4c2)C(=O)NC3=O)cc1,inconclusive: 101%
10,CN(C)C(=S)Nc1ccc(Br)c(Cl)c1,inconclusive: 113%
11,COC(=O)c1ccc(CSc2nnc3c(n2)[nH]c2ccccc23)cc1,inconclusive: 116%
12,COc1c(-c2ccc(O)cc2)oc2cc(O)cc(O)c2c1=O,inconclusive: 123%
13,O=C(COC(=O)CCC(=O)c1ccc(F)cc1)NCc1ccco1,inconclusive: 98.4%
14,COCc1cc(=O)[nH]c(/N=C(\N)Nc2cccc(Cl)c2)n1,inactive: 101%
15,NC(=O)COC(=O)c1ccccc1OCc1ccc(Cl)cc1,inconclusive: 128%
16,Cc1cc(Br)c(OCc2ccc(C(=O)N/N=C3\CC4CC=CC34)cc2)c(Br)c1 (stereo unspecified),inactive: 99.5%
17,Cc1cc[n+](-c2[nH]c(=O)sc2/C=N/N=C(\[O-])c2ccccc2)cc1,inconclusive: 382%
18,CC(C)Sc1nc2c([nH]c3ccccc32)c(=O)n1C,inactive: 118%
19,Cc1[nH]c2ccccc2c1CCNC(=O)c1c(N)no[n+]1[O-],inactive: 96.1%
20,CC(=O)Nc1ccc(NC(=O)C2CC(=O)N(c3ccccc3Cl)C2)cc1 (stereo unspecified),inactive: 101%
21,COC(=O)c1cc(NC(=O)/C=C/c2ccccc2)ccc1O,inactive: 107%
22,CCc1ccc(/C=C2/SC(N3CCOCC3)=NC2=O)cc1,inconclusive: 122%

# 3 entries from above, sorted by count of non-hydrogen atoms, rising.
row,Structure (SMILES),binding response (% of control)
18,CC(C)Sc1nc2c([nH]c3ccccc32)c(=O)n1C,inactive: 118%
17,Cc1cc[n+](-c2[nH]c(=O)sc2/C=N/N=C(\[O-])c2ccccc2)cc1,inconclusive: 382%
7,CCCOc1ccc(/C=N/NC(=O)CN(c2ccc(OCC)cc2)S(C)(=O)=O)cc1,inconclusive: 74%
